According to US20160200831A1:
No constants are given. Whether binding was seen depends on the method and setting. Some binding calls cover weakened binding; strength is not graded here.

Chains of the proteins cited; added tags and fusions are not shown. Lines headed by an entry give the natural chain unless they say otherwise; changes in a name come on top. Residues count along the entry.
UniProt P00750, residues 36-562: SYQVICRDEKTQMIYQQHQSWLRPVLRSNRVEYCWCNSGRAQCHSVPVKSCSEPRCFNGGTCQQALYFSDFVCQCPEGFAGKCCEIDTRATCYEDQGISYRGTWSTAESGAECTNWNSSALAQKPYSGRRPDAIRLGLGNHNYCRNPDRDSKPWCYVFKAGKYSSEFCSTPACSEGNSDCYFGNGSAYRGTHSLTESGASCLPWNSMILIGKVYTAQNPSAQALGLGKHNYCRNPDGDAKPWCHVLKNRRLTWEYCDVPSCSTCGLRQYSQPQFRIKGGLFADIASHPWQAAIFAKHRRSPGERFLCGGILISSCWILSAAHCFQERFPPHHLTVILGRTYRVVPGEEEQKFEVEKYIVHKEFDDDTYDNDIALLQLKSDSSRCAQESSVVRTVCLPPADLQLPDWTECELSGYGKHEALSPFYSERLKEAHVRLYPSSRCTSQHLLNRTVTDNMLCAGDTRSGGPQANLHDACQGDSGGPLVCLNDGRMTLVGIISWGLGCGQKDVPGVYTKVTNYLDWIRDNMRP
UniProt P05121: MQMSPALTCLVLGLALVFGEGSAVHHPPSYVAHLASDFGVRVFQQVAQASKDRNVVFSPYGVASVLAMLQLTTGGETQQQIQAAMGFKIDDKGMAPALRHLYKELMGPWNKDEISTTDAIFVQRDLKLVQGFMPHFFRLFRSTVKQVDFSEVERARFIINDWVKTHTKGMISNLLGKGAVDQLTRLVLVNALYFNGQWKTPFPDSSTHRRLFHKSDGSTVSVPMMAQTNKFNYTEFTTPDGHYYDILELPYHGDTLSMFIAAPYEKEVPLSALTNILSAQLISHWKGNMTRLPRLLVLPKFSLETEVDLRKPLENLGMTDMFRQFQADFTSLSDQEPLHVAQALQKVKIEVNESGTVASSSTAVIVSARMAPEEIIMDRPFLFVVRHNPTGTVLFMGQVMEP

Molecular target: Two-chain tPA (human) (UniProt P00750)
Assay: SDS-PAGE, non-reducing, Coomassie stain, of the PAI-1 + tPA reaction

binding: binds
Substance: human PAI-1 (from UniProt P05121 24-402)
